Measurements: US20210087294A1 (University of Pennsylvania, published 2021)

Key:
[1] = target: canine fibroblast activation protein (FAP) (canine); experiment: flow cytometry on canine FAP-transgene MC KOSA cells, canine primary fibroblasts and SK KOSA cells
[2] = target: canine fibroblast activation protein (FAP) (canine); experiment: flow cytometry (FACS) with hybridoma supernatant on MC KOSA.K9FAP vs MC KOSA parental cells, canine primary fibroblasts and SK KOSA cells; AF488 goat anti-mouse IgG secondary

binding [1]: binds
binding [2]: binds
B1: 4G5 anti-canine FAP antibody (antibody, V domains shown)
VH: QVQLQQPGAELVKPGASVKLSCKASGYTITSYSLHWVKQRPGQGLEWIGEINPANGDHNFSEKFEIKATLTVDSSSNTAFMQLSRLTSEDSAVYYCTRLDDSRFHWYFDVWGAGTTVTVSS
VL: QIVLTQSPALMSASPGEKVTMTCTASSSVSYMYWYQQKPRSSPKPWIFLTSNLASGVPARFSGRGSGTSFSLTISSMEAEDAATYYCQQWSGYPPITFGSGTKLEIK
notes: Mouse hybridoma monoclonal antibody, tested as hybridoma supernatant or immunoglobulin; also called clone 4G5; 4G5 immunoglobulin

These are yes or no findings as the source states them, for the method shown. Binding calls can cover weak binding; strength is not graded here.
